Reference: patent US20250282830A1, “ANTI-VIRAL PEPTIDE COMPOSITIONS AND METHODS TO IMPROVE BIOLOGICAL ACTIVITY THEREOF” (priority 2021, published 2025)
At least one peptide structure holds a part that was inferred or is arguable (an end, a ring closure or a residue).

Legend:
[1] = Rupture of model liposomes, D- versus L-amino acid version
ZIKV HS-2015-BA-01 = assay: Inhibition of viral infection in brain; format: in vivo, SV129 IFN-α/βR−/− (A129−/−) mice; conditions: 25 mg kg−1 i.p. twice daily

CC[C@@H](C)[C@@H](NC(=O)[C@@H](Cc1c[nH]c2ccccc12)NC(=O)[C@@H](CC(=O)O)NC(=O)[C@@H](Cc1c[nH]c2ccccc12)NC(=O)[C@H](NC(=O)[C@@H](CC(=O)O)NC(=O)[C@@H](CCCNC(=N)N)NC(=O)[C@@H](CC(C)C)NC(=O)[C@@H](Cc1c[nH]c2ccccc12)NC(=O)[C@@H](CO)NC(=O)CNC(=O)[C@H](N)CO)C(C)C)C(=O)N[C@H](CS)C(=O)N[C@@H](C(=O)N[C@@H](C(=O)N[C@H](CC(C)C)C(=O)N[C@@H](C(=O)N[C@H](CC(=O)O)C(=O)N[C@H](Cc1ccccc1)C(=O)N[C@H](CCCCN)C(=O)N[C@@H](C(=O)N[C@H](Cc1c[nH]c2ccccc12)C(=O)N[C@H](CC(C)C)C(=O)N[C@H](CCC(N)=O)C(=O)N[C@H](CO)C(=O)N[C@H](CCCCN)C(=O)N[C@H](CC(C)C)C(=O)O)[C@H](C)O)[C@H](C)O)C(C)C)[C@H](C)O [AH-D peptide]
Membrane-curvature-sensing activity compared to the L-amino acid version [1]: distinct membrane-curvature-sensing activity | Rupture potency compared to the L-amino acid version [1]: greater rupture potency | Zika virus-induced brain injury (ZIKV HS-2015-BA-01): protect against Zika virus-induced brain injury | Viral loads in the brain (ZIKV HS-2015-BA-01; intracranial ZIKV inoculation): reduce viral loads in the brain
